Reference: the supplement of paper PMC12823440, “Inhibitors supercharge kinase turnover through native proteolytic circuits” (Nature, 2025)
Counter-ions that a name gives are not always drawn. The list shows a part of the results. Hit calls seldom repeat between salt and free forms of one compound.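 In K562 cells expressing nanoluciferase-fused kinases, luminescence was recorded at 4 h intervals between 2 and 18 h, normalized as percent of control with DMSO at 100% and a positive control at 0%. A significant (2 sigma) signal drop marks a time point as decreased. The authors' rule for a hit is not shown and takes in more than the number of time points.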

Sequences of proteins named here, by UniProt entry; tags and fusion partners are left off. A change or cut given only in a name is not applied to a line headed by its entry.
UniProt Q01974, whole entry: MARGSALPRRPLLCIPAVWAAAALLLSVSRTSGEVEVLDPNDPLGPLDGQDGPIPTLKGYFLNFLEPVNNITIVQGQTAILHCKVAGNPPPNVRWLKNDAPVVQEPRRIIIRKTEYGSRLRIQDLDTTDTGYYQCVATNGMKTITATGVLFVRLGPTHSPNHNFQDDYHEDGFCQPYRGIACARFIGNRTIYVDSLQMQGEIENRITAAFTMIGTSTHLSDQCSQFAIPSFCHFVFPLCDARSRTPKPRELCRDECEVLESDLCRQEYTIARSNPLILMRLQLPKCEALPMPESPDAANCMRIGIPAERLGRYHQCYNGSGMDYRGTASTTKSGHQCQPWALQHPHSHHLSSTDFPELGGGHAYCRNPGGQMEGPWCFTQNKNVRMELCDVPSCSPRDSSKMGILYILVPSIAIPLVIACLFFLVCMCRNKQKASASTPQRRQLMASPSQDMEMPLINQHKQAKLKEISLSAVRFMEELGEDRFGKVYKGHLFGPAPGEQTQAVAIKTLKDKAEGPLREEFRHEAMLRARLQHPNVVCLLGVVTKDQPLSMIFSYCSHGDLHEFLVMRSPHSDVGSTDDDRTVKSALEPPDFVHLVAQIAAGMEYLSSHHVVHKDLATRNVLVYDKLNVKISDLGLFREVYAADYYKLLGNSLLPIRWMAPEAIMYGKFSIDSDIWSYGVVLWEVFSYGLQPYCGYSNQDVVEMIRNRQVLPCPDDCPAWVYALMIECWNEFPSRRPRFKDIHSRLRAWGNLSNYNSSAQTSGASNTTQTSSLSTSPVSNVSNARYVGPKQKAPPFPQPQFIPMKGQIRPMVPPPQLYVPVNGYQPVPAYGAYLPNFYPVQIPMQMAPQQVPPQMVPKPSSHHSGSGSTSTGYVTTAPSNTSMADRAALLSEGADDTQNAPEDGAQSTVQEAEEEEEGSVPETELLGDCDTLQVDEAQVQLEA
UniProt Q9NYA1, whole entry: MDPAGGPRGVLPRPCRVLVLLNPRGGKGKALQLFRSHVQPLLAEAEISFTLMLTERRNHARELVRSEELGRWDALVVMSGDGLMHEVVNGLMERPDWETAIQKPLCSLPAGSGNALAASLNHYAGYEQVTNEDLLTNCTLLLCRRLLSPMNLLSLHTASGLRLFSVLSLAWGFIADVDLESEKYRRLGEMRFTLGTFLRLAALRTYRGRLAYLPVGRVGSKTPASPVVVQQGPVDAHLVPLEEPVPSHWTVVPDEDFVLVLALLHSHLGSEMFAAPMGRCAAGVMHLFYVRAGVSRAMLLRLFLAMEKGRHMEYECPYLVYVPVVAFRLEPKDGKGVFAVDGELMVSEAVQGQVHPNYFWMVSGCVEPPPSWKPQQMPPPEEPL
UniProt Q9Y6E0: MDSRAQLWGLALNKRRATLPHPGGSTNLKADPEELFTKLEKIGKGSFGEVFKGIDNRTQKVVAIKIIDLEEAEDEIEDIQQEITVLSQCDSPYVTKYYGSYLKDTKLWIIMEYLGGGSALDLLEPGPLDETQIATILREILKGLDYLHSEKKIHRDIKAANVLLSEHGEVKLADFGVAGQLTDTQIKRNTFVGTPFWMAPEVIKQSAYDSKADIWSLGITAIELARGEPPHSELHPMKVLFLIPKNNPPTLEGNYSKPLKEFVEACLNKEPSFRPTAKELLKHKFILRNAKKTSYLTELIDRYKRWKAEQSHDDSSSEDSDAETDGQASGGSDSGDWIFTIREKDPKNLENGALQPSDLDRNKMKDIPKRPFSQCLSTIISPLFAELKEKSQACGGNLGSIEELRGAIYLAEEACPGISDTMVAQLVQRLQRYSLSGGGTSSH
UniProt Q15208: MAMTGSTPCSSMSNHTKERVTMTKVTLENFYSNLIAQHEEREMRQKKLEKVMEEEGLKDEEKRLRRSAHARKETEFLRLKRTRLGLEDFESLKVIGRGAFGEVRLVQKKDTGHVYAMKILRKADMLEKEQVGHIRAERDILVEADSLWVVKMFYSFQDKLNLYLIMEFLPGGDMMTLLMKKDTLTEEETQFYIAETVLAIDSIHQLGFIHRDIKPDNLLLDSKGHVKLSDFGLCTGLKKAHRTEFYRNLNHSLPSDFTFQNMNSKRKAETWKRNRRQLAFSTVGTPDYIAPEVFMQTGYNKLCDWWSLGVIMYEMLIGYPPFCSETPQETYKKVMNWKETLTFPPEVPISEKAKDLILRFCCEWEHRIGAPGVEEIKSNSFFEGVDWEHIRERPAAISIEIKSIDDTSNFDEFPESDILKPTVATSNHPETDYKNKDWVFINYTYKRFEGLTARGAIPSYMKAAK
UniProt P42680: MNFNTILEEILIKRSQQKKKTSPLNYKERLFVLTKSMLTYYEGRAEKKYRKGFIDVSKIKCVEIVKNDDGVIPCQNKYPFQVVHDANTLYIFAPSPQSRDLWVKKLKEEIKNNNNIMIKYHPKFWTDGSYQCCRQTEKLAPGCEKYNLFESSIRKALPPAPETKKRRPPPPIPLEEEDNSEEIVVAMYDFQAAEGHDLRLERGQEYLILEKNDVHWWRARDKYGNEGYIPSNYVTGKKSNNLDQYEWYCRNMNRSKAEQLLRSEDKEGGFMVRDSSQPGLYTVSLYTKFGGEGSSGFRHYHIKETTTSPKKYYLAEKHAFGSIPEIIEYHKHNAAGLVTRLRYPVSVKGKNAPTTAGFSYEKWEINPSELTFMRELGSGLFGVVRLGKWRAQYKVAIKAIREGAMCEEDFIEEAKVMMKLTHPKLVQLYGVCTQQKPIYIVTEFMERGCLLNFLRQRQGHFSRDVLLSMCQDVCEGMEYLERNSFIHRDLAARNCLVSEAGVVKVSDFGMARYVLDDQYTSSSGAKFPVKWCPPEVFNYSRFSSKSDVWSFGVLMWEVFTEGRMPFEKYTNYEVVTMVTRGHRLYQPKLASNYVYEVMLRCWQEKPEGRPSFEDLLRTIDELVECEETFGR
UniProt P29597: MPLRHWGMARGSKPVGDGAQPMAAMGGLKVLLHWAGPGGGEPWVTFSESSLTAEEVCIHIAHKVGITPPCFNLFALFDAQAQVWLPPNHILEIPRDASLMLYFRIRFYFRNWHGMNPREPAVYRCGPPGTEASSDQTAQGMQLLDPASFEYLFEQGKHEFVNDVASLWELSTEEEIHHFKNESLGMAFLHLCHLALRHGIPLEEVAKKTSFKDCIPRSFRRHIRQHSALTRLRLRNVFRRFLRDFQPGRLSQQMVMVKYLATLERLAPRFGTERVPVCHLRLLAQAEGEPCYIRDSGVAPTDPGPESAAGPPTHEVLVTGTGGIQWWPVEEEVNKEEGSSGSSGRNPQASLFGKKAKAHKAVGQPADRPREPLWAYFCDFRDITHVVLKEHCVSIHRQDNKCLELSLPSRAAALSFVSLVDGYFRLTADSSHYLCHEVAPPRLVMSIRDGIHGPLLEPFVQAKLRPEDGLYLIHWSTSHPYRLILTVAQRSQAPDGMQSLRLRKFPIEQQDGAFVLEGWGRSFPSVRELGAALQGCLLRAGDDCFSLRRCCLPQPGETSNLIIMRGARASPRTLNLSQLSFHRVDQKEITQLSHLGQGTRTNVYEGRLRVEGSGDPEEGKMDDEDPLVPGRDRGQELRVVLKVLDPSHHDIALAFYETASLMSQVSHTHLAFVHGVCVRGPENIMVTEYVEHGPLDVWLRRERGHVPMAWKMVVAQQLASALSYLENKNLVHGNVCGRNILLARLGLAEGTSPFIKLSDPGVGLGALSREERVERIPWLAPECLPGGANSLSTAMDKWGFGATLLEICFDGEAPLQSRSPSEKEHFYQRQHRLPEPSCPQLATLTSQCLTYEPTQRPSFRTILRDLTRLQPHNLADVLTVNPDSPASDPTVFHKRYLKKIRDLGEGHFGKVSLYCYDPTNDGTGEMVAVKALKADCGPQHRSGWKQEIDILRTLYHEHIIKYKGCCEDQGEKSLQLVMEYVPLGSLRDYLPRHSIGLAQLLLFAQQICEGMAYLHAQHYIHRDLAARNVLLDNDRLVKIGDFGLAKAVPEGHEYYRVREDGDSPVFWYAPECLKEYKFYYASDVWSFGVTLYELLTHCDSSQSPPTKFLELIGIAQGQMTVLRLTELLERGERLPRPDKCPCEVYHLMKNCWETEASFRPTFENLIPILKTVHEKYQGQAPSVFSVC
UniProt Q6PHR2: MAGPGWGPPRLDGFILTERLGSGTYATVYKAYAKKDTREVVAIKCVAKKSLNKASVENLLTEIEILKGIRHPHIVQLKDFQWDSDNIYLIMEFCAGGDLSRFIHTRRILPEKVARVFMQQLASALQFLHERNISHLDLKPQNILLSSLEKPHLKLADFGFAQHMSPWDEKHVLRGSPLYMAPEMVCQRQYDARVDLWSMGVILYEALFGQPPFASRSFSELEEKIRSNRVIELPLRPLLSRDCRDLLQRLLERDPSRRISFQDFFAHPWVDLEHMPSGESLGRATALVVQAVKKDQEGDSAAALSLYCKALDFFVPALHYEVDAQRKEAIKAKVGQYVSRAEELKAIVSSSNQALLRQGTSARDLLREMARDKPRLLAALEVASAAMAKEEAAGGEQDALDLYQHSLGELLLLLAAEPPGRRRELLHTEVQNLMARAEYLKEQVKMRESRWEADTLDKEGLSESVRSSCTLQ
UniProt P07947, whole entry, looked up: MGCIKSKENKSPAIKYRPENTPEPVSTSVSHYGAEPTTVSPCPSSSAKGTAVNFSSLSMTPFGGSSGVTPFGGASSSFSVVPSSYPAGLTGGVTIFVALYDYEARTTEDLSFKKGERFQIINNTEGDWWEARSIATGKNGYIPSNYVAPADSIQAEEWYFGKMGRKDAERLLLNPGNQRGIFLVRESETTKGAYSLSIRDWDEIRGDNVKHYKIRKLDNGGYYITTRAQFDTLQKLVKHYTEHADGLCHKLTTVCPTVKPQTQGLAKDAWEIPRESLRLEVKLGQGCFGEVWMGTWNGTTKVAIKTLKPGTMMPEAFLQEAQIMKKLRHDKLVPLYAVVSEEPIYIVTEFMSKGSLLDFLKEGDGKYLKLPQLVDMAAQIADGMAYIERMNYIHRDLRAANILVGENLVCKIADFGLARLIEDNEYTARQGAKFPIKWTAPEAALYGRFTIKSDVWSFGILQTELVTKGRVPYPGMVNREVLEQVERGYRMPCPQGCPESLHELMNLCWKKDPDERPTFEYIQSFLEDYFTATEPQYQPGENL
UniProt P43403: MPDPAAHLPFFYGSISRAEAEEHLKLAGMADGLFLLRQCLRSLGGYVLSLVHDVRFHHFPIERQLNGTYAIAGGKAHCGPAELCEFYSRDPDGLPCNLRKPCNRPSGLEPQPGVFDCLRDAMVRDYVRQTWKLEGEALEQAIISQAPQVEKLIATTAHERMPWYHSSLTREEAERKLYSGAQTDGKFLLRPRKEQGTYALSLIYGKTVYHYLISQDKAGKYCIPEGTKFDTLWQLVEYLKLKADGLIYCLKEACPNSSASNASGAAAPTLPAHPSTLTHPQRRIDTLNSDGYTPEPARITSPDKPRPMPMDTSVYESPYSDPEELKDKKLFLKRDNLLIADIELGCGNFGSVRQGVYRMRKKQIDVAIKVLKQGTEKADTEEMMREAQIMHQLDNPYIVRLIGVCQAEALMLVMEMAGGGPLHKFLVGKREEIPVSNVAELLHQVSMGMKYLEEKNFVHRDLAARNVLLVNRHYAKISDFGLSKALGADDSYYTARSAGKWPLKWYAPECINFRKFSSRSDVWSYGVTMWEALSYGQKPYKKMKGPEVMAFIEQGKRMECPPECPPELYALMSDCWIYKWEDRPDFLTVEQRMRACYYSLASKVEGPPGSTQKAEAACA
UniProt P50613: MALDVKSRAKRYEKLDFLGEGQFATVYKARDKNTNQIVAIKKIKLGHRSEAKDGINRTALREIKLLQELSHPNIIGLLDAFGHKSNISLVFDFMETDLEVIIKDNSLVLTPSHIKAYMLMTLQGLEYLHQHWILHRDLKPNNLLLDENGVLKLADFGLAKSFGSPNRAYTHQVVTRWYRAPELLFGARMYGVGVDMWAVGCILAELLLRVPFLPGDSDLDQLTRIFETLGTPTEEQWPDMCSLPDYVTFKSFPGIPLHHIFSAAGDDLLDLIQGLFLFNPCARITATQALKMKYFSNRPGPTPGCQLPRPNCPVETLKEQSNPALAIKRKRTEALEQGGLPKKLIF
UniProt P50750, whole entry: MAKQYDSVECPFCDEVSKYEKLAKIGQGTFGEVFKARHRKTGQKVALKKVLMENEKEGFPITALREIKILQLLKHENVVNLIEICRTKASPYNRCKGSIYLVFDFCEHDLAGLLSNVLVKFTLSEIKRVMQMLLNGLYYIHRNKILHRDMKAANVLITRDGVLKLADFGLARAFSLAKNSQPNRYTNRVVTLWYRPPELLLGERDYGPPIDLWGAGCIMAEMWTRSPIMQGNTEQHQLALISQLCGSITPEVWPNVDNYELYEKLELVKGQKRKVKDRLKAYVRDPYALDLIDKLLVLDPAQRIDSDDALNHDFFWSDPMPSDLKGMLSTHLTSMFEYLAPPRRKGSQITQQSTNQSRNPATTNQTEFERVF

Legend:
Details in all cases: K562; 2-18 h
ROR2 = ROR2 (UniProt Q01974); experiment: number of time points (of 5) at which kinase-Nluc abundance scored as decreased, DMSO-normalised (count); higher = more persistent destabilization
RPS6KA1 = RPS6KA1 (UniProt Q15418); experiment: as above
SPHK1 = SPHK1 (UniProt Q9NYA1); experiment: as above
SRC = SRC (UniProt P12931); experiment: as above
STK24 = STK24 (UniProt Q9Y6E0); experiment: as above
STK38 = STK38 (UniProt Q15208); experiment: as above
SYK = SYK (UniProt P43405); experiment: as above
TEC = TEC (UniProt P42680); experiment: as above
TYK2 = TYK2 (UniProt P29597); experiment: as above
ULK3 = ULK3 (UniProt Q6PHR2); experiment: as above
YES1 = YES1 (UniProt P07947); experiment: as above
ZAK = ZAK (UniProt Q9NYL2); experiment: as above
ZAP70 = ZAP70 (UniProt P43403); experiment: as above
CDK4 = CDK4 (UniProt P11802); experiment: number of time points (of 4; 2 h point missing) at which kinase-Nluc abundance scored as decreased, DMSO-normalised (count); higher = more persistent destabilization
CDK7 = CDK7 (UniProt P50613); experiment: as above
CDK9 = CDK9 (UniProt P50750); experiment: as above

Structure (SMILES) | number of time points (ROR2) | number of time points (RPS6KA1) | number of time points (SPHK1) | number of time points (SRC) | number of time points (STK24) | number of time points (STK38) | number of time points (SYK) | number of time points (TEC) | number of time points (TYK2) | number of time points (ULK3) | number of time points (YES1) | number of time points (ZAK) | number of time points (ZAP70) | number of time points (CDK4) | number of time points (CDK7) | number of time points (CDK9)
CCOC(=O)c1c(N2CCc3ccc(OC)cc3C2)oc(C=C2C=Nc3ncccc32)c1O (10 µM) | 0 | 0 | 0 | 0 | 0 | 0 | 0 | 0 | 1 | 0 | 0 | 0 | 0 | 0 | 1 | 2
COc1cc2nc(NC3CC3)nc(NC3CCN(C(C)C)CC3)c2cc1OC (10 µM) | 0 | 0 | 0 | 0 | 0 | 0 | 0 | 0 | 0 | 2 | 0 | 0 | 0 | 0 | 0 | 0
Cc1ncc(-c2cc(F)c(O)c(F)c2)cc1-c1cc(F)c(O)c(F)c1 (10 µM) | 0 | 0 | 0 | 0 | 0 | 0 | 0 | 0 | 0 | 0 | 0 | 0 | 0 | 0 | 0 | 0
CS(=O)(=O)c1cccc(CNc2nc(Nc3ccc4c(c3)CCC(=O)N4)ncc2C(F)(F)F)c1 (10 µM) | 0 | 0 | 0 | 0 | 0 | 0 | 0 | 0 | 0 | 0 | 0 | 0 | 0 | 0 | 0 | 0
CN(C)c1cc[n+](Cc2ccc(OCCOc3ccc(C[n+]4ccc(N(C)C)cc4)cc3)cc2)cc1 (10 µM) | 0 | 0 | 0 | 0 | 0 | 0 | 0 | 0 | 0 | 0 | 0 | 0 | 0 | 0 | 0 | 0
O=C(Nc1ccccc1C(=O)NC1CCCCNC1=O)c1cc2ccccc2s1 (stereo not given) (10 µM) | 0 | 0 | 0 | 0 | 0 | 0 | 0 | 0 | 0 | 0 | 0 | 0 | 0 | 0 | 0 | 0
CN(C)CCn1cc2cc(NC(=O)c3cccc(C(F)(F)F)n3)c(C(C)(C)O)cc2n1 (10 µM) | 0 | 0 | 0 | 0 | 0 | 0 | 0 | 0 | 0 | 0 | 0 | 0 | 0 | 0 | 0 | 0
CCOC(=O)c1c(C)[nH]c(C=C2C(=O)Nc3ccccc32)c1C (10 µM) | 0 | 0 | 0 | 0 | 0 |  | 0 | 0 | 0 | 0 | 0 | 0 | 0 | 0 | 0 | 0
COC(=O)N1CCN(C2CCC(Nc3nc(Nc4cnn(C)c4)nc4ccc(CC#N)nc34)CC2)CC1 (stereo not given) (10 µM) | 0 | 0 | 0 | 0 | 0 | 0 | 0 | 0 | 0 | 0 | 0 | 0 | 0 | 0 | 0 | 0
CNc1cc2c(Nc3cccc(Br)c3)ncnc2cn1 (10 µM) | 0 | 0 | 0 | 0 | 0 | 0 | 0 | 0 | 0 | 0 | 0 | 0 | 0 | 0 | 0 | 0
Cn1cc(-c2nc(N[C@@H]3CCCC[C@@H]3N)c(F)c3c2C(=O)NC3)cn1 [TAK-659 (hydrochloride)] (2 µM) | 0 | 0 | 0 | 0 | 0 | 0 |  | 0 | 0 | 0 | 0 | 0 | 0 | 0 | 0 | 0
C[C@@H]1COC(Nc2ccc3ncnc(Nc4ccc(OCc5nccs5)c(Cl)c4)c3c2)=N1 [Varlitinib] (10 µM) | 0 | 0 | 0 | 0 | 0 | 0 | 0 | 0 | 0 | 0 | 0 | 0 | 0 | 0 | 0 | 1

Looked up above:
CNc1cc2c(Nc3cccc(Br)c3)ncnc2cn1 (10 µM) | number of time points (TYK2): 0
CN(C)c1cc[n+](Cc2ccc(OCCOc3ccc(C[n+]4ccc(N(C)C)cc4)cc3)cc2)cc1 (10 µM) | number of time points (RPS6KA1): 0
